Measured values: article PMC6056059
Results are given in words; binding and its absence hold for the method and conditions named. In cells and extracts the contact can be indirect. Binding can be weak; no strength is given.

Sequences of proteins named here, by UniProt entry; tags and fusion partners are left off. A change or cut given only in a name is not applied to a line headed by its entry.
UniProt Q99MQ1: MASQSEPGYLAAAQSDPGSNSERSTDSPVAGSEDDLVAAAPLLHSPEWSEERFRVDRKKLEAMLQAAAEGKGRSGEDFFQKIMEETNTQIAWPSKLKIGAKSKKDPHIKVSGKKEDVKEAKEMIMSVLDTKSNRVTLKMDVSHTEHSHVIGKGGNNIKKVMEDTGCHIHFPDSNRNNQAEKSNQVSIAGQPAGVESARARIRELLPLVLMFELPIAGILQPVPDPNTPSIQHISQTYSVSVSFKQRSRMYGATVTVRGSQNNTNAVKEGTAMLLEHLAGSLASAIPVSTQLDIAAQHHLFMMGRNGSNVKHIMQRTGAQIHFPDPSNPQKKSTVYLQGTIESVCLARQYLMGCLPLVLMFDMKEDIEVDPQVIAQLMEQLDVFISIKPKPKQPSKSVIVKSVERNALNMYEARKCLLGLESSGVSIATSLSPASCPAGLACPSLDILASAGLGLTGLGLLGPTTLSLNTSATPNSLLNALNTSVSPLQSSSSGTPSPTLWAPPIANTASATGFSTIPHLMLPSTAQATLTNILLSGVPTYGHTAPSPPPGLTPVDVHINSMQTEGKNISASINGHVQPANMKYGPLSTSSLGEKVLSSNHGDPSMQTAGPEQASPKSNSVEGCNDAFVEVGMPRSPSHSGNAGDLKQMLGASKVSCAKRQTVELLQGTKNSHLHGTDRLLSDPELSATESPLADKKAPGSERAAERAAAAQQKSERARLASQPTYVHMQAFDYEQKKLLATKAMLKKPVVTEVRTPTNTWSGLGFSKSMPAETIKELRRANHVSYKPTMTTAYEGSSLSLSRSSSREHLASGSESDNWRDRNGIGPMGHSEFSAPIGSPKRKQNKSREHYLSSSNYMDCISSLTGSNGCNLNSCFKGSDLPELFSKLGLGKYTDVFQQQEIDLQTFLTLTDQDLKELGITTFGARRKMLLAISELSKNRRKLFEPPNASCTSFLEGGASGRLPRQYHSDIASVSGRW
UniProt Q8IUR7: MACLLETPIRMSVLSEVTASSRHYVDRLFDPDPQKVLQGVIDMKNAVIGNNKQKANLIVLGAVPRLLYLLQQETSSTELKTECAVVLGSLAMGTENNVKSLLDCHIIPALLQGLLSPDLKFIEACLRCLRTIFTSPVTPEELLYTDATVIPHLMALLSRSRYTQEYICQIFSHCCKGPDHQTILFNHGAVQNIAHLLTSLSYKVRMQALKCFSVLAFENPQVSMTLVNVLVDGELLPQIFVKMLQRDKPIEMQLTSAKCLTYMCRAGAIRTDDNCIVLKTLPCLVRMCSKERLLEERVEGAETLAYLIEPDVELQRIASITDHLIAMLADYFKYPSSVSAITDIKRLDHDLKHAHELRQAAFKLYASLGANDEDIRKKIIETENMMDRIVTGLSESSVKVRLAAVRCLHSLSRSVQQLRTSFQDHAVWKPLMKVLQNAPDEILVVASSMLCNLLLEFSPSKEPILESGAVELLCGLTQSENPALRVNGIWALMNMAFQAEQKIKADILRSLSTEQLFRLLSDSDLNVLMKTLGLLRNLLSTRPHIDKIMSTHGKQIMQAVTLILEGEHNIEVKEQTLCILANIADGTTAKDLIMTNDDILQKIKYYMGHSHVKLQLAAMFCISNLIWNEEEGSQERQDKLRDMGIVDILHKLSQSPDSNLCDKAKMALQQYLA
UniProt Q9H7D7: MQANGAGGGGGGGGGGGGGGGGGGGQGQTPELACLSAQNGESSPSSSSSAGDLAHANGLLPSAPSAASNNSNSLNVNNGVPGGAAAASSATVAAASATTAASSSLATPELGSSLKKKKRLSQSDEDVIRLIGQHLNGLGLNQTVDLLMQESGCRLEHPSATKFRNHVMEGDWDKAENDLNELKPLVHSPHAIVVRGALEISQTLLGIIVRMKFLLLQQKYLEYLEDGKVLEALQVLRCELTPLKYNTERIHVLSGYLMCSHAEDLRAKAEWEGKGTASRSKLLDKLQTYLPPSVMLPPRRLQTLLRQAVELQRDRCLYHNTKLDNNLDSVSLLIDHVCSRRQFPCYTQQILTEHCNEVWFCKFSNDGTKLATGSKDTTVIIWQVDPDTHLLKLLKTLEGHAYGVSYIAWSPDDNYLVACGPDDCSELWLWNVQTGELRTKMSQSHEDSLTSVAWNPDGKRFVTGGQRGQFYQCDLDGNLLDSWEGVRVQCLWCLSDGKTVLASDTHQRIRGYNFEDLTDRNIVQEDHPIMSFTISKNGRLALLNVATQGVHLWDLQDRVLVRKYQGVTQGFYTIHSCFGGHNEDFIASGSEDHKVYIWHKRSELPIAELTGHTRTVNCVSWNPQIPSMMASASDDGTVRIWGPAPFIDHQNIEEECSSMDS

Experiments:
Assay in all cases: co-IP; transfected HEK293T extracts (TBS, 1 mM DTT, 0.05% NP-40); anti-HA agarose, anti-FLAG M2 gel or anti-MKLN1; 2 hrs at 4°C; Western blot; mock-transfected cells or pre-immune IgG as control; in Fig 6E with or without cotransfected Flag-ANKS3 or Flag-ANKS3ΔC
[1] = molecular target: HA-Bicc1 MutA (mouse) (UniProt Q99MQ1)
[2] = molecular target: HA-Bicc1 MutF (mouse) (UniProt Q99MQ1)
[3] = molecular target: HA-Bicc1 MutC (mouse) (UniProt Q99MQ1)
[4] = molecular target: HA-Bicc1 MutE (mouse) (UniProt Q99MQ1)

binding [1] | binding [2] | binding [3] | binding [4] | Substance
binds | binds | binds | binds | Armadillo repeat containing 8 (ARMC8), endogenous in HEK293 cells (from UniProt Q8IUR7 1-673)
binds | binds | binds weakly | binds weakly | WD repeat-containing protein 26 (WDR26), endogenous in HEK293 cells (from UniProt Q9H7D7 1-661)
